Measurements from article PMC5442318, “Hundreds of dual-stage antimalarial molecules discovered by a functional gametocyte screen” (Nature Communications, 2017).

Test system: HepG2 cells
Assay: HepG2 cytotoxicity assay
Assay type: cell-based
Experimental: After incubation, plates and CellTiter-Glo Reagent (G7571, Promega) were equilibrated at room temperature for 30 min before proceeding to develop the luminescent signal. Using a Multidrop combi dispenser, 25 μl per well of the signal developer were added to the plates and after 10 min at room temperature for stabilization, plates were read on the ViewLux system (Perkin Elmer).

[1] = HepG2 TOX50 versus Pf FGAA IC50

Compound | Selectivity ratio (HepG2 TOX50 vs Pf FGAA IC50) | also measured
N#Cc1ccc(-c2ccc(C(=O)NCC3CCN(CCN4CCC(c5ccc6c(c5OCC(N)=O)CCCC6)CC4)CC3)cc2)cc1 [TCMDC-134563] |  | Selectivity ratio [1]: 4.88
NCCCCNc1cc(-c2ccnc(Nc3cccc(Cl)c3)n2)ccn1 [TCMDC-134683] |  | Selectivity ratio [1]: 0.46
COc1cccc(OC)c1CN1CCC(N(C)CCCCCCCCN2CCC(OC(=O)Nc3ccccc3-c3ccccc3)CC2)CC1 [TCMDC-134684] |  | Selectivity ratio [1]: 0.85
COc1cccc(OC)c1CN1CCC(N(C)CCCCCCCCCN2CCC(OC(=O)Nc3ccccc3-c3ccccc3)CC2)CC1 [TCMDC-134690] |  | Selectivity ratio [1]: 1.46
Cc1cccc(Nc2nc(N[C@@H]3CCCNC3)nc3cc[nH]c(=O)c23)c1.O=C(O)C(F)(F)F [TCMDC-134835] |  | Selectivity ratio [1]: 1.76
O=C(O)C(F)(F)F.O=c1[nH]ccc2nc(N[C@@H]3CCNC3)nc(Nc3cc(Cl)cc(Cl)c3)c12 [TCMDC-135052] |  | Selectivity ratio [1]: 6.49
NCCCNc1nc(Nc2ccc(C(F)(F)F)cc2F)c2c(=O)[nH]ccc2n1.O=C(O)C(F)(F)F [TCMDC-135056] |  | Selectivity ratio [1]: 5.83
Fc1ccc(OC2CN(c3nccc(NCc4ccccc4Cl)n3)C2)cc1 [TCMDC-135110] |  | Selectivity ratio [1]: 15.99
COc1ccccc1CNc1ccnc(N2CC(Oc3ccc(F)cc3)C2)n1 [TCMDC-135118] |  | Selectivity ratio [1]: 18.10
CC(C)(C)OC(=O)NCc1ccc(Nc2nnc(-c3cccc(C(=O)NCc4cc(C(F)(F)F)cc(C(F)(F)F)c4)c3)o2)cc1 [TCMDC-135229] |  | Selectivity ratio [1]: 6.82
CCn1c(Sc2ccc([N+](=O)[O-])c(C#N)c2)nnc1-c1cccc(Cl)c1 [TCMDC-135234] |  | Selectivity ratio [1]: 13.98
Cc1occc1C(=O)Nc1nc(-c2ccccn2)nc2ccsc12 [TCMDC-135244] |  | Selectivity ratio [1]: >1,666.67
CCn1c(-c2nonc2N)nc2c(-c3cc4ccccc4s3)ncc(C(=O)N3CCC(N)C3)c21.O=C(O)C(F)(F)F (stereo not drawn) [TCMDC-135281] |  | Selectivity ratio [1]: 2.23
CN1CCN(Cc2ccc(-c3cc4c(Nc5ccc(OCc6cccc(F)c6)c(Cl)c5)ncnc4s3)[nH]2)CC1 [TCMDC-135458] |  | Selectivity ratio [1]: 4.56
Cc1[nH]c(C)c(-c2ccc(CCc3ccc(F)cc3F)cc2)c(=O)c1Cl [TCMDC-135462] |  | Selectivity ratio [1]: >7.52
CNCCNc1nccc(N2CCc3ncnc(Nc4ccc(OCc5cccc(F)c5)c(Cl)c4)c3C2)n1 [TCMDC-135478] |  | Selectivity ratio [1]: 3.36
CC(C)N1CCN(C(CN2CCN(CCCOc3ccc(-c4ccccc4)cc3)CC2)c2ccc(F)cc2)CC1.Cl (stereo not drawn) [TCMDC-135497] |  | Selectivity ratio [1]: 1.62
CC(C)N1CCN(C(CN2CCN(CCCOc3ccccc3-c3ccccc3)CC2)c2ccc(F)cc2)CC1.Cl (stereo not drawn) [TCMDC-135499] |  | Selectivity ratio [1]: 3.06
COc1ccc(-c2cnc3[nH]cc(-c4ccncc4)c3c2)cc1OC [TCMDC-135853] |  | Selectivity ratio [1]: 5.22
COc1ccc2ccccc2c1CCCCN1CCN(CC(c2ccc(F)cc2)N2CCC2)CC1.O=C(O)C(F)(F)F (stereo not drawn) [TCMDC-135867] | 0.74 | 
COc1cc(/C=C(\C2=NC(=O)CS2)c2nc3cccnc3n2C)ccc1O [TCMDC-135917] | 29.44 | 
CCn1c(-c2nonc2N)nc2c(-c3cccc(NC(=O)Nc4ccc(Cl)cc4)c3)ncc(OCCCN)c21.O=C(O)C(F)(F)F [TCMDC-136152] | 6.43 | 
CCn1c(-c2nonc2N)nc2c(-c3cccc(NC(=O)Nc4ccc(C(F)(F)F)cc4)c3)ncc(OCCCN)c21.O=C(O)C(F)(F)F [TCMDC-136179] | 6.15 | 

Compound | Selectivity ratio (HepG2 TOX50 vs Pf FGAA IC50) | also measured
CCn1c(-c2nonc2N)nc2c(-c3cccc(NC(=O)Nc4ccc5c(c4)CCC5)c3)ncc(OCCCN)c21.O=C(O)C(F)(F)F [TCMDC-136191] | 7.20 | 
CCn1c(-c2nonc2N)nc2c(-c3cccc(NC(=O)Nc4cccc(Cl)c4)c3)ncc(OCCCN)c21.O=C(O)C(F)(F)F [TCMDC-136193] | 68.35 | 
Cl.c1ccc2c(C3CCN(CCCCOc4ccc5c(c4)CCN(CC4CC4)CC5)CC3)c[nH]c2c1 [TCMDC-136244] | 4.48 | 
CCn1c(-c2nonc2N)nc2c(-c3cccc(NC(=O)NC45CC6CC(CC(C6)C4)C5)c3)ncc(OCCCN)c21.O=C(O)C(F)(F)F [TCMDC-136246] | 4.47 | 
Cc1noc(C)c1-c1ccc2c(Nc3nccc4ccccc34)c(C(N)=O)cnc2c1 [TCMDC-136456] | 2.50 | 
COc1ccc(Nc2nccc(-c3ccc4ccnc(NCCCCN)c4c3)n2)cc1 [TCMDC-136642] | 9.46 | 
Cc1cc(C(F)(F)F)cc(-n2ncc(-c3ccc(C(=O)NCc4ccccc4N)cc3)c2N)n1.O=C(O)C(F)(F)F [TCMDC-136658] | 18.37 | 
Cc1cc(OCCN2CCCCC2)ccc1NC(=O)c1cccc2c(=O)n(Cc3ccc(Cl)cc3)cnc12 [TCMDC-136727] | 2.97 | 
CN1CCN(Cc2ccc(OCc3cccc(COc4ccc(CN5CCN(C)CC5)cc4I)c3)c(I)c2)CC1.Cl [TCMDC-137239] | 2.71 | 
CC(C)NCc1ccc(OCc2cccc(COc3ccc(CNC(C)C)cc3I)c2)c(I)c1.Cl [TCMDC-137259] | 1.24 | 
CCCCOc1ccc(CNCCCCCCNCc2ccc(OCCCC)c3ccccc23)c2ccccc12.CS(=O)(=O)O [TCMDC-137281] | 5.69 | 
CS(=O)(=O)O.FC(F)(F)COc1ccc(CCNCCCCNCCc2ccc(OCC(F)(F)F)c3ccccc23)c2ccccc12 [TCMDC-137282] | 8.19 | 
CS(=O)(=O)O.FC(F)(F)COc1ccc2ccccc2c1CCNCCCCNCCc1c(OCC(F)(F)F)ccc2ccccc12 [TCMDC-137317] | 2.08 | 
COc1cc2c(cc1CCNCCCCNCCc1cc3c(cc1OC)CCCC3)CCCC2.CS(=O)(=O)O [TCMDC-137319] | 2.10 | 
COc1ccc2c(c1CCNCCCCNCCc1c(OC)ccc3c1CCCC3)CCCC2.CS(=O)(=O)O [TCMDC-137324] | 2.62 | 
C=CCOc1ccc2ccccc2c1CNCCCCCCNCc1c(OCC=C)ccc2ccccc12.CS(=O)(=O)O [TCMDC-137340] | 2.75 | 
Cl.c1ccc2c(Nc3ccc(Cc4ccc(Nc5c6ccccc6nc6ccccc56)cc4)cc3)c3ccccc3nc2c1 [TCMDC-137354] | 3.69 | 
Br.C/C=C/C=C/C1=NCCc2cc(OCCC)ccc21 [TCMDC-137442] | 14.10 | 
Cl.N=C(NCCCCC1CCCCC1)c1cccc(C(=N)NCCCCC2CCCCC2)n1 [TCMDC-137452] | 1.73 | 
CC(CNC(=N)c1cccc(C(=N)NCC(C)Oc2cccc(C3CCCCC3)c2)n1)Oc1cccc(C2CCCCC2)c1.Cl (stereo not drawn) [TCMDC-137455] | 1.70 | 
N=C(NCC1CC1c1ccccc1)c1cccc(C(=N)NCC2CC2c2ccccc2)n1 (stereo not drawn) [TCMDC-137456] | 3.28 | 
CCCCN(CCCC)CCCCNc1c2ccc(Cl)cc2nc2ccc(OC)cc12.Cl [TCMDC-137460] | 2.41 | 
COc1cc(CNCCCCCCNCc2cc(OC)c3ccccc3c2OC)c(OC)c2ccccc12.CS(=O)(=O)O [TCMDC-137502] | 2.20 | 

Compound | Selectivity ratio (HepG2 TOX50 vs Pf FGAA IC50) | also measured
Clc1ccc(/N=C(/NCCCCCCCN/C(=N\c2ccc(Cl)cc2)Nc2ccc(Cl)cc2)Nc2ccc(Cl)cc2)cc1 [TCMDC-137529] | 3.42 | 
COc1ccc(CNCCCCCCNCc2ccc(OC)c3ccccc23)c2ccccc12.Cl [TCMDC-137631] | 2.52 | 
CN1CCN(CCNc2c3ccccc3nc3c2ccc2ccccc23)CC1.Cl [TCMDC-137723] | 1.45 | 
COc1ccc2nc(-c3ccccc3)cc(NCCCNc3cc(-c4ccccc4)nc4ccc(OC)cc34)c2c1.Cl [TCMDC-137734] | 12.64 | 
Cl.c1ccc2c(NCCCCCCCCCNc3ccnc4ccccc34)ccnc2c1 [TCMDC-137750] | 1.77 | 
Cl.c1ccc2c(NCCCCCCCCNc3ccnc4ccccc34)ccnc2c1 [TCMDC-137751] | 1.13 | 
CC(CO)(CO)NCc1cc2c3ccccc3c(CNC(C)(CO)CO)cc2c2ccccc12.CS(=O)(=O)O [TCMDC-137752] | 1.66 | 
CS(=O)(=O)O.CSc1ccc2ccccc2c1CCNCCCCNCCc1c(SC)ccc2ccccc12 [TCMDC-137763] | 1.80 | 
CC1CCCCN1CCCNc1nc(NCc2ccccc2)c2ccccc2n1 (stereo not drawn) [TCMDC-137771] | 2.02 | 
Clc1ccc(Nc2nc3ccc(Cl)cc3nc2Nc2ccc(Cl)cc2)cc1 [TCMDC-137772] | 4.11 | 
COc1cc2ccccc2c(CNCCCCCCNCc2c(OC)c(OC)cc3ccccc23)c1OC.CS(=O)(=O)O [TCMDC-137795] | 6.95 | 
COc1ccc2ccc(OC)c(CNCCCCCCNCc3c(OC)ccc4ccc(OC)cc34)c2c1.CS(=O)(=O)O [TCMDC-137796] | 2.73 | 
COc1ccc2cc(CNCCCCCCNCc3ccc4cc(OC)ccc4c3)ccc2c1.CS(=O)(=O)O [TCMDC-137797] | 2.64 | 
Clc1nc(Cl)c2c(ccn2Cc2ccccc2)n1 [TCMDC-137801] | >68.49 | 
c1cc(C2=N[C@H]3CCCC[C@@H]3N2)ccc1OCCCOc1ccc(C2=N[C@@H]3CCCC[C@H]3N2)cc1 [TCMDC-137803] | 3.31 | 
Nc1nc(N)c2c(ccc3c2ccn3Cc2cccc(F)c2)n1 [TCMDC-137810] | 0.0444 | 
Nc1nc(N)c2c(ccc3c2ccn3Cc2ccc(-c3ccccc3)cc2)n1 [TCMDC-137813] | 0.57 | 
CS(=O)(=O)O.FC(F)(F)COc1ccc2ccccc2c1CNCCCCCCNCc1c(OCC(F)(F)F)ccc2ccccc12 [TCMDC-137816] | 1.70 | 
N#Cc1ccc(Cn2ccc3c4c(N)nc(N)nc4ccc32)cc1 [TCMDC-137820] | <0.0016 | selectivity ratio (selectivity index) (HepG2 Tox50 vs Pf FGAA IC50): < 10
CCCCSc1c(CNCCCCCCNCc2ccc3ccccc3c2SCCCC)ccc2ccccc12.CS(=O)(=O)O [TCMDC-137825] | 2.85 | 
COc1c(OC)c(OC)c2ccccc2c1CNCCCCCCNCc1c(OC)c(OC)c(OC)c2ccccc12.Cl [TCMDC-137827] | 1.77 | 
C#CCCOc1ccc2ccccc2c1CNCCCCCCNCc1c(OCCC#C)ccc2ccccc12 [TCMDC-137832] | 5.19 | 
